These are yes or no findings as the source states them, for the method shown.

This assay concerns the target N73L-AIM2^FL (human) (UniProt O14862). The assay is described as follows: negative-stain EM (nsEM); 100 nM AIM2^FL (cleaved by TEVp) with 150 nM linear plasmid dsDNA (~5 kbp); filament formation on dsDNA; both purified.

B1: N73L-AIM2^FL (protein, UniProt O14862 1-343)
chain: MESKYKEILLLTGLDNITDEELDRFKFFLSDEFNIATGKLHTANRIQVATLMIQNAGAVSAVMKTIRIFQKLLYMLLAKRLQEEKEKVDKQYKSVTKPKPLSQAEMSPAASAAIRNDVAKQRAAPKVSPHVKPEQKQMVAQQESIREGFQKRCLPVMVLKAKKPFTFETQEGKQEMFHATVATEKEFFFVKVFNTLLKDKFIPKRIIIIARYYRHSGFLEVNSASRVLDAESDQKVNVPLNIIRKAGETPKINTLQTQPLGTIVNGLFVVQKVTEKKKNILFDLSDNTGKMEVLGVRNEDTMKCKEGDKVRLTFFTLSKNGEKLQLTSGVHSTIKVIKAKKKT
Take B1: the binding entry was “no binding”.

Source of the values: publication PMC8115694, “Distinct axial and lateral interactions within homologous filaments dictate the signaling specificity and order of the AIM2-ASC inflammasome” (Nature Communications, 2021).
